# Test results reported in ChEMBL document CHEMBL4680077, “Differentiation of skeletal osteogenic progenitor cells to osteoblasts with 3,4-diarylbenzopyran based amide derivatives: Novel osteogenic agents” (Eur J Med Chem, 2016).
# Further values from the same series stand in other lists.
# How the values were obtained:
# Format in all cases: organism-based
# Settings in all cases: in vivo, 168 h, time 7 day
# [1] = Acute toxicity in Swiss albino mouse assessed as body weight at 50 mg/kg, po measured on day 7 (reference value: 22.75 +/- 0.38 g)
# [2] = Acute toxicity in Swiss albino mouse assessed as body weight at 1000 mg/kg, po measured on day 7 (reference value: 22.75 +/- 0.38 g)
# [3] = Acute toxicity in Swiss albino mouse assessed as haemoglobin level at 300 mg/kg, po measured after 7 days (reference value: 10.86 +/- 0.87 g/dL)
# [4] = Acute toxicity in Swiss albino mouse assessed as RBC count at 5 mg/kg, po measured after 7 days (Rvb =6.0 +/- 0.28 million/mm3)
# [5] = Acute toxicity in Swiss albino mouse assessed as RBC count at 1000 mg/kg, po measured after 7 days (Rvb =6.0 +/- 0.28 million/mm3)
# [6] = Acute toxicity in Swiss albino mouse assessed as creatinine level at 5 mg/kg, po measured after 7 days (reference value: 0.97 +/- 0.07 mg/dL)
# [7] = Acute toxicity in Swiss albino mouse assessed as WBC count per thousand/mm3 at 300 mg/kg, po measured after 7 days (reference value: 6.84 +/- 0.83 /mm3)
# [8] = Acute toxicity in Swiss albino mouse assessed as ALKP level at 5 mg/kg, po measured after 7 days (reference value: 379.25 +/- 27.08 U/L)
# [9] = Acute toxicity in Swiss albino mouse assessed as ALKP level at 300 mg/kg, po measured after 7 days (reference value: 379.25 +/- 27.08 U/L)
# [10] = Acute toxicity in Swiss albino mouse assessed as SGOT level at 300 mg/kg, po measured after 7 days (reference value: 31.99 +/- 3.37 U/L)
# [11] = Acute toxicity in Swiss albino mouse assessed as SGPT level at 300 mg/kg, po measured after 7 days (reference value: 14.04 +/- 1.45 U/L)
# [12] = Acute toxicity in Swiss albino mouse assessed as SGPT level at 1000 mg/kg, po measured after 7 days (reference value: 14.04 +/- 1.45 U/L)
# [13] = Acute toxicity in Swiss albino mouse assessed as albumin level at 300 mg/kg, po measured after 7 days (reference value: 3.24 +/- 0.30 g/dL)
# [14] = Acute toxicity in Swiss albino mouse assessed as triglycerides level at 5 mg/kg, po measured after 7 days (reference value: 58.51 +/- 10.82 mg/dL)
# [15] = Acute toxicity in Swiss albino mouse assessed as cholesterol level at 5 mg/kg, po measured after 7 days (reference value: 265.76 +/- 24.78 mg/dL)
# [16] = Acute toxicity in Swiss albino mouse assessed as cholesterol level at 50 mg/kg, po measured after 7 days (reference value: 265.76 +/- 24.78 mg/dL)
# [17] = Acute toxicity in Swiss albino mouse assessed as cholesterol level at 1000 mg/kg, po measured after 7 days (reference value: 265.76 +/- 24.78 mg/dL)
# [18] = Acute toxicity in Swiss albino mouse assessed as serum protein level at 300 mg/kg, po measured after 7 days (reference value: 0.66 +/- 0.01 mg/ml)
# [19] = Acute toxicity in Swiss albino mouse assessed as serum protein level at 1000 mg/kg, po measured after 7 days (reference value: 0.66 +/- 0.01 mg/ml)
# [20] = Acute toxicity in Swiss albino mouse assessed as reduced GSH level at 5 mg/kg, po measured after 7 days (reference value: 18.20 +/- 1.56 ug/mg of protein)
# [21] = Acute toxicity in Swiss albino mouse assessed as reduced GSH level at 300 mg/kg, po measured after 7 days (reference value: 18.20 +/- 1.56 ug/mg of protein)
# [22] = Acute toxicity in Swiss albino mouse assessed as malondialdehyde level at 300 mg/kg, po measured after 7 days (reference value: 0.14 +/- 0.01 nM/mg)
# [23] = Acute toxicity in Swiss albino mouse assessed as neutrophil count at 5 mg/kg, po measured after 7 days (reference value: 41.50 +/- 4.08 %)
# [24] = Acute toxicity in Swiss albino mouse assessed as neutrophil count at 50 mg/kg, po measured after 7 days (reference value: 41.50 +/- 4.08 %)
# [25] = Acute toxicity in Swiss albino mouse assessed as lymphocyte count at 50 mg/kg, po measured after 7 days (reference value: 37.97 +/- 1.80 %)
# [26] = Acute toxicity in Swiss albino mouse assessed as lymphocyte count at 1000 mg/kg, po measured after 7 days (reference value: 37.97 +/- 1.80 %)
# [27] = Acute toxicity in Swiss albino mouse assessed as monocyte count at 5 mg/kg, po measured after 7 days (reference value: 12.58 +/- 2.86 %)
# [28] = Acute toxicity in Swiss albino mouse assessed as eosinophil count at 300 mg/kg, po measured after 7 days (reference value: 6.34 +/- 1.04 %)
# [29] = Acute toxicity in Swiss albino mouse assessed as basophil count at 5 mg/kg, po measured after 7 days (reference value: 1.50 +/- 0.29 %)
# [30] = Acute toxicity in Swiss albino mouse assessed as absolute liver weight at 5 mg/kg, po measured after 7 days (reference value: 1.11 +/- 0.04 g)
# [31] = Acute toxicity in Swiss albino mouse assessed as absolute liver weight at 300 mg/kg, po measured after 7 days (reference value: 1.11 +/- 0.04 g)
# [32] = Acute toxicity in Swiss albino mouse assessed as absolute lung weight at 5 mg/kg, po measured after 7 days (reference value: 0.16 +/- 0.01 g)
# [33] = Acute toxicity in Swiss albino mouse assessed as absolute lung weight at 1000 mg/kg, po measured after 7 days (reference value: 0.16 +/- 0.01 g)
# [34] = Acute toxicity in Swiss albino mouse assessed as absolute brain weight at 50 mg/kg, po measured after 7 days (reference value: 0.37 +/- 0.02 g)
# [35] = Acute toxicity in Swiss albino mouse assessed as absolute brain weight at 300 mg/kg, po measured after 7 days (reference value: 0.37 +/- 0.02 g)
# [36] = Acute toxicity in Swiss albino mouse assessed as absolute spleen weight at 50 mg/kg, po measured after 7 days (reference value: 0.17 +/- 0.03 g)
# [37] = Acute toxicity in Swiss albino mouse assessed as absolute heart weight at 300 mg/kg, po measured after 7 days (reference value: 0.12 g)
# [38] = Acute toxicity in Swiss albino mouse assessed as absolute uterus weight at 1000 mg/kg, po measured after 7 days (reference value: 0.27+/- 0.07 g)
# [39] = Acute toxicity in Swiss albino mouse assessed as absolute ovary weight at 50 mg/kg, po measured after 7 days (reference value: 0.04+/- 0.02 g)
# [40] = Acute toxicity in Swiss albino mouse assessed as absolute ovary weight at 1000 mg/kg, po measured after 7 days (reference value: 0.04+/- 0.02 g)
# [41] = Acute toxicity in Swiss albino mouse assessed as absolute testes weight at 5 mg/kg, po measured after 7 days (reference value: 0.15+/- 0.01 g)
# [42] = Acute toxicity in Swiss albino mouse assessed as absolute testes weight at 50 mg/kg, po measured after 7 days (reference value: 0.15+/- 0.01 g)
# [43] = Acute toxicity in Swiss albino mouse assessed as absolute testes weight at 1000 mg/kg, po measured after 7 days (reference value: 0.15+/- 0.01 g)
# [44] = Acute toxicity in Swiss albino mouse assessed as relative lung weight at 5 mg/kg, po measured after 7 days (reference value: 0.70 +/- 0.08 %)
# [45] = Acute toxicity in Swiss albino mouse assessed as relative brain weight at 300 mg/kg, po measured after 7 days (reference value: 1.63 +/- 0.13 %)
# [46] = Acute toxicity in Swiss albino mouse assessed as relative brain weight at 1000 mg/kg, po measured after 7 days (reference value: 1.63 +/- 0.13 %)
# [47] = Acute toxicity in Swiss albino mouse assessed as relative spleen weight at 50 mg/kg, po measured after 7 days (reference value: 0.73 +/- 0.14 %)
# [48] = Acute toxicity in Swiss albino mouse assessed as relative spleen weight at 300 mg/kg, po measured after 7 days (reference value: 0.73 +/- 0.14 %)
# [49] = Acute toxicity in Swiss albino mouse assessed as relative kidney weight at 5 mg/kg, po measured after 7 days (reference value: 1.25 +/- 0.08 %)
# [50] = Acute toxicity in Swiss albino mouse assessed as relative heart weight at 50 mg/kg, po measured after 7 days (reference value: 0.51 +/- 0.02 %)
# [51] = Acute toxicity in Swiss albino mouse assessed as relative heart weight at 300 mg/kg, po measured after 7 days (reference value: 0.51 +/- 0.02 %)
# [52] = Acute toxicity in Swiss albino mouse assessed as relative uterus weight at 1000 mg/kg, po measured after 7 days (reference value: 1.63 +/- 0.71 %)
# [53] = Acute toxicity in Swiss albino mouse assessed as relative ovary weight at 5 mg/kg, po measured after 7 days (reference value: 0.07 +/- 0.02 %)
# [54] = Acute toxicity in Swiss albino mouse assessed as relative testes weight at 50 mg/kg, po measured after 7 days (reference value: 0.62 +/- 0.03 %)
# [55] = Acute toxicity in Swiss albino mouse assessed as relative testes weight at 300 mg/kg, po measured after 7 days (reference value: 0.62 +/- 0.03 %)
# [56] = Acute toxicity in Swiss albino mouse assessed as relative testes weight at 1000 mg/kg, po measured after 7 days (reference value: 0.62 +/- 0.03 %)
structure (smiles),measurement,setting,value
CCCCN(C)C(=O)CCCCOc1ccc([C@H]2c3ccc(OC)cc3OC(C)(C)[C@@H]2c2ccccc2)cc1,Activity,[1],23.52 g
same,Activity,[2],20.3 g
same,Activity,[3],12.92 g/dL
same,Activity,[4],7.14 million/mm3
same,Activity,[5],6.27 million/mm3
same,Activity,[6],0.78 mg/dL
same,Activity,[7],6.59 /mm3
same,Activity,[8],278.7 U/L
same,Activity,[9],329.28 U/L
same,Activity,[10],42.66 U/L
same,Activity,[11],17.6 U/L
same,Activity,[12],17.21 U/L
same,Activity,[13],3.73 g/dL
same,Activity,[14],67.53 mg/dL
same,Activity,[15],288.67 mg/dL
same,Activity,[16],219.09 mg/dL
same,Activity,[17],267.94 mg/dL
same,Activity,[18],0.67 mg/mL
same,Activity,[19],0.75 mg/mL
same,Activity,[20],19.35 µg/mg
same,Activity,[21],14.31 µg/mg
same,Activity,[22],0.13 nM/mg
same,Activity,[23],42.94%
same,Activity,[24],44.27%
same,Activity,[25],35.79%
same,Activity,[26],34.49%
same,Activity,[27],8.94%
same,Activity,[28],5.27%
same,Activity,[29],0.67%
same,Activity,[30],1.18 g
same,Activity,[31],1.13 g
same,Activity,[32],0.15 g
same,Activity,[33],0.15 g
same,Activity,[34],0.36 g
same,Activity,[35],0.35 g
same,Activity,[36],0.13 g
same,Activity,[37],0.12 g
same,Activity,[38],0.38 g
same,Activity,[39],0.07 g
same,Activity,[40],0.05 g
same,Activity,[41],0.15 g
same,Activity,[42],0.17 g
same,Activity,[43],0.18 g
same,Activity,[44],0.61%
same,Activity,[45],1.54%
same,Activity,[46],1.63%
same,Activity,[47],0.55%
same,Activity,[48],0.57%
same,Activity,[49],1.13%
same,Activity,[50],0.5%
same,Activity,[51],0.49%
same,Activity,[52],1.82%
same,Activity,[53],0.2%
same,Activity,[54],0.63%
same,Activity,[55],0.54%
same,Activity,[56],0.88%
